The source of these data is the supplement of paper PMC12819154, “High-throughput peptide-centric local stability assay extends protein–ligand identification to membrane proteins, tissues and bacteria” (Nature Structural & Molecular Biology, 2025).

Amino acid sequences for entries named in this document (tags omitted). A change or cut given only in a name is not applied to a line headed by its entry.
UniProt Q92575: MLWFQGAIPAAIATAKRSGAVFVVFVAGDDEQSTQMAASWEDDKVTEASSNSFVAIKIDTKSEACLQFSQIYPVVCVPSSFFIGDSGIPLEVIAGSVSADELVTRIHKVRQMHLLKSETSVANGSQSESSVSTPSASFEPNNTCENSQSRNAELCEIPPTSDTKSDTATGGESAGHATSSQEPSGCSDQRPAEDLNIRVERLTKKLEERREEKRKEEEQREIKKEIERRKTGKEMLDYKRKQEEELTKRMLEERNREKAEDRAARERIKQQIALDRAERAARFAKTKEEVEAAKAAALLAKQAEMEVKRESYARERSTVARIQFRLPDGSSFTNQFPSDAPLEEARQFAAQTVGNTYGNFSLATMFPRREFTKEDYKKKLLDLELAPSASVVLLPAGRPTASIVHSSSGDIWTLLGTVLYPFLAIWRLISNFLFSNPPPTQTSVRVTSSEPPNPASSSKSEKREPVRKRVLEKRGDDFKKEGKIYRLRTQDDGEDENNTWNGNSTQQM
UniProt Q92681: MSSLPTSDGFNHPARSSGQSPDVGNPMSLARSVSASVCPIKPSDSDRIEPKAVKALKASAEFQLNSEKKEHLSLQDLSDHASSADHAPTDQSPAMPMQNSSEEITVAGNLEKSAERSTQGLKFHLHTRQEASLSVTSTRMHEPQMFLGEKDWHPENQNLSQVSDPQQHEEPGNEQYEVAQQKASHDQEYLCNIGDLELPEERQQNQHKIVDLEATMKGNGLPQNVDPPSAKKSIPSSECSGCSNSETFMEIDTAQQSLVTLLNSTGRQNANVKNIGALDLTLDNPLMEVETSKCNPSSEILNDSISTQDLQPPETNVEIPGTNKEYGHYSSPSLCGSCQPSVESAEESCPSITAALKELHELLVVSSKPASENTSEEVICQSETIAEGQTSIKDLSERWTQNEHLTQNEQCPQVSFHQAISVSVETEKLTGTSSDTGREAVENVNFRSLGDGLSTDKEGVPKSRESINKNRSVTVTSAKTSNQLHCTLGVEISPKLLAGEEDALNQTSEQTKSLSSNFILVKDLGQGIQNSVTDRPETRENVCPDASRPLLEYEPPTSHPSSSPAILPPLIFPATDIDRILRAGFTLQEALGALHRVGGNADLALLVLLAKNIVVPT
UniProt Q8WUM0: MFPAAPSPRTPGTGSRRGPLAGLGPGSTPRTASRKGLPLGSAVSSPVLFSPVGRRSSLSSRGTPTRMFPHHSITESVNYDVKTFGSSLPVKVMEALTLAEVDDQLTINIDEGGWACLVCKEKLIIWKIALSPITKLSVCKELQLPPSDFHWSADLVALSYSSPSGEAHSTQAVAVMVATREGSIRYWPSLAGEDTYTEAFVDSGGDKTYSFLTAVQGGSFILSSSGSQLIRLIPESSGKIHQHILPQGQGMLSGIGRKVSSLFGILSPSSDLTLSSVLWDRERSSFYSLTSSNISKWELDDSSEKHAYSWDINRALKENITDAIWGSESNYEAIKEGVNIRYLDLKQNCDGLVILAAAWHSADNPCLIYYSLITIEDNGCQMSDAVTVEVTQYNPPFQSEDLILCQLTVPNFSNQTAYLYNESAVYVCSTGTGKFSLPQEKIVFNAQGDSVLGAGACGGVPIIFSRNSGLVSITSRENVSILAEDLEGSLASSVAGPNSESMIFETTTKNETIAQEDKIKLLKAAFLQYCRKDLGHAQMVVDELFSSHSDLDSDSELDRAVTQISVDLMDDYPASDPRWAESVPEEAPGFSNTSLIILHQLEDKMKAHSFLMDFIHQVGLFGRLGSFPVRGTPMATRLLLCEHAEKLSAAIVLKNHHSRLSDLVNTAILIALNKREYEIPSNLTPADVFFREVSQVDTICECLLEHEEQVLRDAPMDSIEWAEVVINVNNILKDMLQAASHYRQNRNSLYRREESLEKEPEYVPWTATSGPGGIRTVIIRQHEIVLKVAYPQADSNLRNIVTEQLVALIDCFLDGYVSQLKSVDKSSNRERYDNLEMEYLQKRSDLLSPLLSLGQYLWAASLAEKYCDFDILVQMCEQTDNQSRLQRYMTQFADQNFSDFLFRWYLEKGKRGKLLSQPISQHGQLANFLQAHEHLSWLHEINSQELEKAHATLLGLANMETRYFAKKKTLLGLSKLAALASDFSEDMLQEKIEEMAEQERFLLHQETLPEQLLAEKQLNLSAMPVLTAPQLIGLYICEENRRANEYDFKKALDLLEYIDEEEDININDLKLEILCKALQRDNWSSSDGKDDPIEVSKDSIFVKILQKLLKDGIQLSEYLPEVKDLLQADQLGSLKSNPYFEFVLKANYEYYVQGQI
UniProt Q92733: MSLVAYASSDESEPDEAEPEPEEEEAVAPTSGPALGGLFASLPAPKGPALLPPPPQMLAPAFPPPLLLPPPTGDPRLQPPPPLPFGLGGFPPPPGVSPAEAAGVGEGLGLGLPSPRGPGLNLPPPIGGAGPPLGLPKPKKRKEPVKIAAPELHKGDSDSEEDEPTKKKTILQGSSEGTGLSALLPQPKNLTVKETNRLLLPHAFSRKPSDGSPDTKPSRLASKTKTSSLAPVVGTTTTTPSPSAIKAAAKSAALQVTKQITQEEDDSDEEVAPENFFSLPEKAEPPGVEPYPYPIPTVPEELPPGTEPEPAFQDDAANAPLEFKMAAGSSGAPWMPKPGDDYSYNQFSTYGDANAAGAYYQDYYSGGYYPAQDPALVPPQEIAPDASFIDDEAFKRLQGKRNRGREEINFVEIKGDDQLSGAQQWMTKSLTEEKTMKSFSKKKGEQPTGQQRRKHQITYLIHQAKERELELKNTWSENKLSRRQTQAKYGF
UniProt Q8WV07: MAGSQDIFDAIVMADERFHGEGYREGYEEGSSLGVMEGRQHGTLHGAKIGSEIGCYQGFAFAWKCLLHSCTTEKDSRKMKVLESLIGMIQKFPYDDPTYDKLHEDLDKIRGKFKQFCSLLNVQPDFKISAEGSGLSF
UniProt Q8TDY4: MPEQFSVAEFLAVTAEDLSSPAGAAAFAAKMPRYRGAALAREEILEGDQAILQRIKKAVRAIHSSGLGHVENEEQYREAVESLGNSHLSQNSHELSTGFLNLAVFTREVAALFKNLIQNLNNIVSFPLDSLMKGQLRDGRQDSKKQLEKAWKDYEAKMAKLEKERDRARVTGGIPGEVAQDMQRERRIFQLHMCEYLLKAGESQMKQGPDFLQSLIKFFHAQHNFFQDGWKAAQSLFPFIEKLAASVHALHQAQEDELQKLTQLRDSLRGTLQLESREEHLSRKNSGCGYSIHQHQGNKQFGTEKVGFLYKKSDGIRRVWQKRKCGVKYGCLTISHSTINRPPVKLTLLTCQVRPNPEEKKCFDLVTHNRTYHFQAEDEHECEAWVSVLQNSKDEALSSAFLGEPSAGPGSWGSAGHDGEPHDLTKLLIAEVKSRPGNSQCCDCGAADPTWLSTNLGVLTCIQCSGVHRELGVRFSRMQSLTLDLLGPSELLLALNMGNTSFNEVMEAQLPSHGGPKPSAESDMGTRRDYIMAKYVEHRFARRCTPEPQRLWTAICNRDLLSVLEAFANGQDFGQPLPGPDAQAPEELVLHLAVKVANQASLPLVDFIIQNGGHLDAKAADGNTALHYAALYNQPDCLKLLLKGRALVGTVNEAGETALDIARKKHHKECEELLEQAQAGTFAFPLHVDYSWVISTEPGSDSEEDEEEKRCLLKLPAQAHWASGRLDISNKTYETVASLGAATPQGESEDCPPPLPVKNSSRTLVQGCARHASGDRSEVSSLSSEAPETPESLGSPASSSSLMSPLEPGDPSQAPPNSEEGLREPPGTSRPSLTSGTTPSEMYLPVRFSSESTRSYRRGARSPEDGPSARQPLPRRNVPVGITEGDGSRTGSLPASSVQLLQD
UniProt Q8TCB7: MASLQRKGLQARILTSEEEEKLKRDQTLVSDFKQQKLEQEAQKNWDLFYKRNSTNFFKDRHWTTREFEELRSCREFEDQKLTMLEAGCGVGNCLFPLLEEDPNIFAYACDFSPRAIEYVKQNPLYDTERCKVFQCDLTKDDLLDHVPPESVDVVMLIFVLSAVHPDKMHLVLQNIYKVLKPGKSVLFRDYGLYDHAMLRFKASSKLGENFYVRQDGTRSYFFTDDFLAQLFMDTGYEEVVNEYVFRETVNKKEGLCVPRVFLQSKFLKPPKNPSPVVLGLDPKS
UniProt Q8WWI1: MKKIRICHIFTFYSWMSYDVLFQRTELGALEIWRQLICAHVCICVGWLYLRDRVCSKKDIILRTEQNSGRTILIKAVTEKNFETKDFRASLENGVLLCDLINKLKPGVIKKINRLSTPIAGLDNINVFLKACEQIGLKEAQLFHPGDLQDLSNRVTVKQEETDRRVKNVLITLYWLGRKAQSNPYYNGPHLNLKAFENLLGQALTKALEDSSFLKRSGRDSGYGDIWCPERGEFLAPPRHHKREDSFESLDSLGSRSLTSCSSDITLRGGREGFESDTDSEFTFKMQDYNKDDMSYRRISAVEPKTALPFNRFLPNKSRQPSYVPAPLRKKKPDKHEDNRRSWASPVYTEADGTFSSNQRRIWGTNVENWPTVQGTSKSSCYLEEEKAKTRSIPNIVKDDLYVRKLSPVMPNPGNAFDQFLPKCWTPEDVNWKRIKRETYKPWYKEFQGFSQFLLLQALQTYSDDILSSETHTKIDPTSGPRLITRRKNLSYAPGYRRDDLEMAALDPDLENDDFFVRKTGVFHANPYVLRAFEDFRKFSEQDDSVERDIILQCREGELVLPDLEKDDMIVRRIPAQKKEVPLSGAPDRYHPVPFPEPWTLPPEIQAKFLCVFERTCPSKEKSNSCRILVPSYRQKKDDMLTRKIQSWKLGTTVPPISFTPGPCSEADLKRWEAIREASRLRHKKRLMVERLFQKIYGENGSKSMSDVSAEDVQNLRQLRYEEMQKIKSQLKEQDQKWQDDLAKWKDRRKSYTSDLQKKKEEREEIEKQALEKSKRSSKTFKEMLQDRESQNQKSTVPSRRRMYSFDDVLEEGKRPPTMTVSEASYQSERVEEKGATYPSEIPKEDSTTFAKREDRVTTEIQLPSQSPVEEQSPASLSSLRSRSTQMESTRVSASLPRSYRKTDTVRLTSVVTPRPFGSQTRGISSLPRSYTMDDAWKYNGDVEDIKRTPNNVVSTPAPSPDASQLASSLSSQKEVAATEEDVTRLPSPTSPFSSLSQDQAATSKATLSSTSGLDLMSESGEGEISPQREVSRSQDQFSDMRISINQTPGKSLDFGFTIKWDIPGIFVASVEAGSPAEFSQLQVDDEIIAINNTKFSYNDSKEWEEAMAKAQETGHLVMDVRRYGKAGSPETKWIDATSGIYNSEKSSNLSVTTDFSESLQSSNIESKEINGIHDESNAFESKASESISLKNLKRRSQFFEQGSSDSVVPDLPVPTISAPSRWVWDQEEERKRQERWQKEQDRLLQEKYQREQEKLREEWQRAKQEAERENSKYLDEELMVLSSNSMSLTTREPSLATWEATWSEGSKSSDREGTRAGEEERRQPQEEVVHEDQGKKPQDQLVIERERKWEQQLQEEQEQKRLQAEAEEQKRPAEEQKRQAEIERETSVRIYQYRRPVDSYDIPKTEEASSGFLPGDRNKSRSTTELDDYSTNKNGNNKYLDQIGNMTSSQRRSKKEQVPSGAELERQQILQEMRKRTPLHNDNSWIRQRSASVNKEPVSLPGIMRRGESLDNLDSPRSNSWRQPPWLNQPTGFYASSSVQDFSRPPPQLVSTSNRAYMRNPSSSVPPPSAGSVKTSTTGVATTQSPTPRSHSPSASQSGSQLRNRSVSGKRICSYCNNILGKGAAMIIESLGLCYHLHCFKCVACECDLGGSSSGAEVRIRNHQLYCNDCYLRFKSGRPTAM
UniProt Q8WVC6: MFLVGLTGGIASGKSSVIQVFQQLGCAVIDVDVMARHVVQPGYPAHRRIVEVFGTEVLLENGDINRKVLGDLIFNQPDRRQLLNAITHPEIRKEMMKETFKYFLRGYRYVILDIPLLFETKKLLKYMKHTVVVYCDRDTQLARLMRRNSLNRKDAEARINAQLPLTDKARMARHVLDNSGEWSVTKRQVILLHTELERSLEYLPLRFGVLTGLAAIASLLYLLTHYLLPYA
UniProt Q8WYN0: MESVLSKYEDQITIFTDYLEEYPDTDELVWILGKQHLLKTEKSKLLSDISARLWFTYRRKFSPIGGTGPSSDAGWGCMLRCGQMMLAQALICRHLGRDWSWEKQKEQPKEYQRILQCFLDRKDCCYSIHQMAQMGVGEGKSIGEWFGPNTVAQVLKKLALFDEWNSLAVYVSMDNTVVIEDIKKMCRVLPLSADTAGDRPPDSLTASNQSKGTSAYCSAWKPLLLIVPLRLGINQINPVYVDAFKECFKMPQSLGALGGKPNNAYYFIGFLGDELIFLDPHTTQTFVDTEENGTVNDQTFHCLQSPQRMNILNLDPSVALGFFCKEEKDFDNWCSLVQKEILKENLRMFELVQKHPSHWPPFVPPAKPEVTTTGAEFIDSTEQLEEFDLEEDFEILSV

Some of the results follow. Most values lie at the level of the controls, where differences are scatter.

Compound in the assay: CN[C@@H]1C[C@H]2O[C@@](C)([C@@H]1OC)n1c3ccccc3c3c4c(c5c6ccccc6n2c5c31)C(=O)NC4 [staurosporine]
The experiment in a line: log2 fold change of tryptic peptide abundance, ligand vs vehicle (limited proteolysis) (log2 ratio); higher = more trypsin-susceptible (destabilized). Particulars: ligand concentration: 20 uM; sample: K562 cleared lysate; digestion: 4 min, 22 C (HT-PELSA RT4min, Orbitrap Astral).
Turning to “UBXN4 (peptide sequence: MLWFQGAIPAAIATAK, peptide start residue: 1) (UniProt Q92575)”, the log2 fold change was determined as 0.433.

Take “UniProt Q8WVT3 (peptide sequence: SPSFGGASEASAR, peptide start residue: 182)”: the log2 fold change was 0.177.

Take “RSC1A1 (peptide sequence: DLGQGIQNSVTDRPETR, peptide start residue: 523) (UniProt Q92681)”: the log2 fold change was -0.282.

With “SLC39A7 (peptide sequence: DGPVRPQNAEEEKR, peptide start residue: 298) (UniProt Q92504)”, the log2 fold change was 0.513.

With “UniProt Q8WVR3 (peptide sequence: VLVVEPVK, peptide start residue: 573)”, the log2 fold change was determined as 0.175.

Take “PPP1R13L (peptide sequence: MDSEAFQSAR, peptide start residue: 1) (UniProt Q8WUF5)”: the log2 fold change was -0.342.

For “UniProt Q8WVS4 (peptide sequence: CRDPDQDAR, peptide start residue: 57)”, the log2 fold change was 0.86.

For “RABGGTA (peptide sequence: TSEEQAEAK, peptide start residue: 9) (UniProt Q92696)”, the log2 fold change is -0.0613.

For “NUP133 (peptide sequence: NETIAQEDKIK, peptide start residue: 510) (UniProt Q8WUM0)”, the log2 fold change was -0.875.

Turning to “DLG5 (peptide sequence: LGSSSNLQFK, peptide start residue: 1261) (UniProt Q8TDM6)”, the log2 fold change worked out at 0.759.

On to “ZNF592 (peptide sequence: RSQPQLTQMSVPLVHQVK, peptide start residue: 528) (UniProt Q92610)”, for which the log2 fold change is 0.799.

Take “ZFAND2B (peptide sequence: HRHPLDHDCSGEGHPTSR, peptide start residue: 126) (UniProt Q8WV99)”: the log2 fold change is 0.53.

As for “UniProt Q8TDN6 (peptide sequence: MLMPHSK, peptide start residue: 83)”, the log2 fold change is -0.54.

As for “PRCC (peptide sequence: GDDQLSGAQQWMTK, peptide start residue: 415) (UniProt Q92733)”, the log2 fold change was -0.585.

With “CHTF18 (peptide sequence: FNEGVSNAVR, peptide start residue: 957) (UniProt Q8WVB6)”, the log2 fold change came to 0.167.

For “ALMS1 (peptide sequence: VSAVSGPADQK, peptide start residue: 695) (UniProt Q8TCU4)”, the log2 fold change was -0.333.

For “UniProt Q8WV07 (peptide sequence: FHGEGYR, peptide start residue: 18)”, the log2 fold change was -0.159.

Regarding “UniProt Q92731 (peptide sequence: LANLLMLLSHVR, peptide start residue: 455)”, the log2 fold change was found to be 0.331.

“ASAP3 (peptide sequence: YGCLTISHSTINRPPVK, peptide start residue: 329) (UniProt Q8TDY4)”: the log2 fold change was -0.753.

As to “METTL6 (peptide sequence: ILTSEEEEK, peptide start residue: 13) (UniProt Q8TCB7)”, the log2 fold change was -0.131.

Turning to “LEO1 (peptide sequence: RDEEGNEIKESNAR, peptide start residue: 426) (UniProt Q8WVC0)”, the log2 fold change was 0.743.

Take “ZFPM2 (peptide sequence: LLDYHECTVCK, peptide start residue: 850) (UniProt Q8WW38)”: the log2 fold change was -0.863.

For the target “CT55 (peptide sequence: HLYGAGPSDSGTR, peptide start residue: 100) (UniProt Q8WUE5)”, the log2 fold change is -0.262.

On to “H1FX (peptide sequence: AAKPSVPKVPK, peptide start residue: 200) (UniProt Q92522)”, for which the log2 fold change was found to be 0.301.

For “LMO7 (peptide sequence: SASVNKEPVSLPGIMR, peptide start residue: 1491) (UniProt Q8WWI1)”, the log2 fold change stood at 0.388.

On to “DCAKD (peptide sequence: INAQLPLTDK, peptide start residue: 159) (UniProt Q8WVC6)”, for which the log2 fold change stood at 0.162.

As for “UniProt Q92567 (peptide sequence: TYQASSAAFR, peptide start residue: 93)”, the log2 fold change is -0.122.

As for “NSMAF (peptide sequence: EHNVVAPYKIER, peptide start residue: 117) (UniProt Q92636)”, the log2 fold change was -0.209.

“ANP32B (peptide sequence: KRETDDEGEDD, peptide start residue: 241) (UniProt Q92688)”: the log2 fold change was determined as 0.128.

With “MYO18A (peptide sequence: EKNEIQNR, peptide start residue: 1740) (UniProt Q92614)”, the log2 fold change came out at 0.706.

As to “UniProt Q8WXD9 (peptide sequence: MTPEDLTAIGVTKPGHR, peptide start residue: 523)”, the log2 fold change amounted to 0.355.

For “SNX33 (peptide sequence: QATGRFEEDFIEKR, peptide start residue: 293) (UniProt Q8WV41)”, the log2 fold change was -0.781.

For “ATG4A (peptide sequence: ILQCFLDRK, peptide start residue: 114) (UniProt Q8WYN0)”, the log2 fold change is 0.177.

On to “UniProt Q92615 (peptide sequence: YREPPALK, peptide start residue: 693)”, for which the log2 fold change was 0.401.

As for “DOT1L (peptide sequence: LSGLAAPDYTR, peptide start residue: 763) (UniProt Q8TEK3)”, the log2 fold change turned out to be 0.491.

Take “FAM172A (peptide sequence: IHVQSSSDSSDEPAEKR, peptide start residue: 211) (UniProt Q8WUF8)”: the log2 fold change is -0.275.
